The list shows a part of the results.

The target in this experiment is T1, OsSMF1 (Oryza sativa, UniProt Q6ZLB0 1-436).
T1 sequence: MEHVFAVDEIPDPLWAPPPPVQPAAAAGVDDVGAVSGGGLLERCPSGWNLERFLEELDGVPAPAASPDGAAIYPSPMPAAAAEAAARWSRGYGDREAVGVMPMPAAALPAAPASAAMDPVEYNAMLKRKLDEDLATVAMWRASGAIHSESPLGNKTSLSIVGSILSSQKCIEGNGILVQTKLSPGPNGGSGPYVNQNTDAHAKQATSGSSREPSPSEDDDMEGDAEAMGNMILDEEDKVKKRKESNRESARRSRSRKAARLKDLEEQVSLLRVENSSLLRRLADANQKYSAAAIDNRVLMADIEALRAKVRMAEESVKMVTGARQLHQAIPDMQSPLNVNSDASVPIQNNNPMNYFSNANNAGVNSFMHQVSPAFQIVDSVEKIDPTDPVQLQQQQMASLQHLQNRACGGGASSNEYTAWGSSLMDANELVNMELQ
The experiment can be described thus: protein-binding microarray (RPBM); PBS, 2% BSA, 51.3 ng/ul salmon testes DNA, 50 uM zinc acetate, 200 nM TF, 25 C, 1 h; high values mean tight binding. Particulars: protein: recombinant; tags: N-terminal polyhistidine and DsRed monomer fusion (pET32a); chain copies: 2; label: CyDye5-dUTP incorporated in the synthesized complementary strand; 3' TTTTT single-stranded linker to array surface; dsDNA, one strand shown. A digest of the protocol: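 Transcription factors were made in E. coli BL21-CodonPlus as N-terminal fusions to a polyhistidine tag and DsRed, then purified on Ni–NTA. After primer extension with Cy5-dUTP and blocking with 2% BSA, a custom Agilent array was exposed for 1 h at 25 °C to 200 nM protein in PBS, 2% BSA, salmon testes DNA and 50 µM zinc acetate. Washed arrays were scanned on an Axon 4000B, and the binding signal is per-feature fluorescence intensity in arbitrary units.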
On to “TAGATAATAAGCTCTGACATGTGGGACCCACGTATGAAAACGGAGTCACCTAGTGCAG”, for which the binding signal is 3630 fluorescence intensity (a.u.).

For the sequence “CACGATCCATCATATCGCTTGAGCTAGCCACAACACACAACGGAGTCACCTAGTGCAG”, the binding signal was 22100 fluorescence intensity (a.u.).

For the sequence “ACCTTGCCGCTCTATTCAGTAGCATGCTTGAGTGTCCGTGCGGAGTCACCTAGTGCAG”, the binding signal is 3370 fluorescence intensity (a.u.).

On to “GTAATAAGATACTTCGTCTCAACACGTCAAACTAGGTGAACGGAGTCACCTAGTGCAG”, for which the binding signal is 3550 fluorescence intensity (a.u.).

“TTCTCCTTGCCACGCATTGACATCTTCCTGAAACTTGGTGCGGAGTCACCTAGTGCAG”: the binding signal is 8130 fluorescence intensity (a.u.).

With “TAGGCCCAAATGCCAGCCCAAGCACGTGTATGGGGCCGTACGGAGTCACCTAGTGCAG”, the binding signal is 3250 fluorescence intensity (a.u.).

With “AACTCGATCCACGTCGCTCTCGCTCGCCACAGACACGGGCCGGAGTCACCTAGTGCAG”, the binding signal is 4500 fluorescence intensity (a.u.).

In the case of “AGTATTTTAAATCATATACAAGTACGTCACATCATCACTCCGGAGTCACCTAGTGCAG”, the binding signal was 3720 fluorescence intensity (a.u.).

For “GTAGCTGAGTCAGTCGACCCACCCTGCCTAATGGGTATATCGGAGTCACCTAGTGCAG”, the binding signal is 10400 fluorescence intensity (a.u.).

For “ACCACCACTGCCACTGTAGCGTCATGCTGTAACGCTCGCTCGGAGTCACCTAGTGCAG”, the binding signal was 4940 fluorescence intensity (a.u.).

In the case of “AAACTCGCGAGTTGGCCCCACGTGTCATCCTCACGACCGTCGGAGTCACCTAGTGCAG”, the binding signal is 11400 fluorescence intensity (a.u.).

In the case of “GCATATGTAAACCACCAACAGTCACCCACTCACCTGTTAACGGAGTCACCTAGTGCAG”, the binding signal was 3970 fluorescence intensity (a.u.).

Turning to “TTTTCAATATACTTGTAAAATTATAATGGTATAGTTGCAACGGAGTCACCTAGTGCAG”, the binding signal is 28100 fluorescence intensity (a.u.).

As to “TGTTCAGGATGTCCGGAGAATGATGGTGGAAAGGGGCCTCCGGAGTCACCTAGTGCAG”, the binding signal is 3190 fluorescence intensity (a.u.).

“GCATGCATTGCCTCTTGCTCGCCTACGTGGTAATGAAAACCGGAGTCACCTAGTGCAG”: the binding signal is 6560 fluorescence intensity (a.u.).

With “ACCAAACTTCCCTCCACGCCTGCTTCGCCCAACTCGTTCTCGGAGTCACCTAGTGCAG”, the binding signal is 4080 fluorescence intensity (a.u.).

In the case of “CACTCGCACCCATCTCATCACCGAGTCACCGGCACCGGTCCGGAGTCACCTAGTGCAG”, the binding signal was 5200 fluorescence intensity (a.u.).

On to “TAGATCAGGGACATAGTGACATCGTTTGATGGCACTTCTACGGAGTCACCTAGTGCAG”, for which the binding signal was 3320 fluorescence intensity (a.u.).

Consider “TTGGCATCAGTCAAAACTAACTAAACCTACTTTATCCATACGGAGTCACCTAGTGCAG”, for which the binding signal is 3680 fluorescence intensity (a.u.).

On to “GGGACGAGAGGAGCAACGCGCGGGCGCCGGCTGGCAAGAGCGGAGTCACCTAGTGCAG”, for which the binding signal is 3960 fluorescence intensity (a.u.).

Consider “CCCGGGTCGGGGTCGGGGTCCGGGGTCGGGGTCCCCAACTCGGAGTCACCTAGTGCAG”, for which the binding signal is 3860 fluorescence intensity (a.u.).

Regarding “GTAATTGAAGATCGGAGTGTTGTATTTGAGCTGGCAAGTTCGGAGTCACCTAGTGCAG”, the binding signal is 4480 fluorescence intensity (a.u.).

Turning to “GCCACAGAAGATCACGGGCAGCTGACGTGGTGCGCCGTCACGGAGTCACCTAGTGCAG”, the binding signal was 21800 fluorescence intensity (a.u.).

As for “TTTAGTGACACCCAGCTGATATCGTGATTTGCAAATAGTACGGAGTCACCTAGTGCAG”, the binding signal is 3510 fluorescence intensity (a.u.).

In the case of “CTGATCAGGTGCGGCGCCGCCGCCGTCCCGGACGACGAGCCGGAGTCACCTAGTGCAG”, the binding signal is 32800 fluorescence intensity (a.u.).

Turning to “TTTCAGAGTGTAATTCTTTGATTGGCAGTATCGTCTCAGACGGAGTCACCTAGTGCAG”, the binding signal was 4530 fluorescence intensity (a.u.).

Regarding “ACCACTGCACGGCCGCTCACCCACGTCAACGTTTAACCTGCGGAGTCACCTAGTGCAG”, the binding signal was 10200 fluorescence intensity (a.u.).

With “CAAGATGGCATTGCCACGAATACGTGGCCCATAGAGAATTCGGAGTCACCTAGTGCAG”, the binding signal is 4160 fluorescence intensity (a.u.).

For “ACTAACTTAGCTAGCGTGACAACTGGCACGCTCATTTTCTCGGAGTCACCTAGTGCAG”, the binding signal is 3540 fluorescence intensity (a.u.).

On to “CTGACTTTTAGCTGCACCAGCATTCATCTTACTGAGCACGCGGAGTCACCTAGTGCAG”, for which the binding signal was 22600 fluorescence intensity (a.u.).

For “ATGGTAATGTTGAGTTGAAAGGGATTATAAGAAACCATGACGGAGTCACCTAGTGCAG”, the binding signal was 19100 fluorescence intensity (a.u.).

For “GCGGAGTAGCATCGCGATGACGCTGCCGCCGCCGTGGGGCCGGAGTCACCTAGTGCAG”, the binding signal is 4830 fluorescence intensity (a.u.).

For “AGAGAGAGAGATTGAGATGCCAAATCATTTCCATGCGGATCGGAGTCACCTAGTGCAG”, the binding signal is 3370 fluorescence intensity (a.u.).

Consider “CCTCACCGTCCACTCCCAACCGCAAAACCCCACGCGTCAGCGGAGTCACCTAGTGCAG”, for which the binding signal is 5470 fluorescence intensity (a.u.).

For “CTCGATCTCGTCTATAAATACCGGGGACGTGCATCCTTCCCGGAGTCACCTAGTGCAG”, the binding signal is 3280 fluorescence intensity (a.u.).

Take “CAAAGGGAATATATCAAAGTCTCTTAATAGTTTGGATGACCGGAGTCACCTAGTGCAG”: the binding signal was 16300 fluorescence intensity (a.u.).

“CTCGATTTCTCGAACCTTCTTATCTGACGTTGACGCCCCTCGGAGTCACCTAGTGCAG”: the binding signal was 5210 fluorescence intensity (a.u.).

With “AGAACACTGTGTCCCTTACGTGGCGACCTAATTTACCGTCCGGAGTCACCTAGTGCAG”, the binding signal was 20200 fluorescence intensity (a.u.).

With “TGGTTGGAGGATGACGCCGACTTCCCTGAAGCTAGGCGAACGGAGTCACCTAGTGCAG”, the binding signal was 3980 fluorescence intensity (a.u.).

Consider “TCTTGCACCTTGCACGATGAAGTCGTCACATCACTTACCGCGGAGTCACCTAGTGCAG”, for which the binding signal is 3540 fluorescence intensity (a.u.).

As for “TGGTCCGGCCGCGCGCCGCTGCCGCCGCCGCCGCAGGGCGCGGAGTCACCTAGTGCAG”, the binding signal is 14400 fluorescence intensity (a.u.).

Take “TGTTTGCACTTGGTCACTTCCCCTTGCTCACTTCCTTGGGCGGAGTCACCTAGTGCAG”: the binding signal was 3150 fluorescence intensity (a.u.).

As to “GAAATTTTCAGGGTGTTACATAGATCAACTGAATTCCTTACGGAGTCACCTAGTGCAG”, the binding signal was 3550 fluorescence intensity (a.u.).

As to “CAGCGGGCGGAGGCCATGGCAGCTCGTGGCGTTGGGCGGACGGAGTCACCTAGTGCAG”, the binding signal was 3250 fluorescence intensity (a.u.).

With “GCTCACGTTGACCTGCCTTAGGCCACCGTTCTCACCGGCTCGGAGTCACCTAGTGCAG”, the binding signal is 3550 fluorescence intensity (a.u.).

“TCTTGTGTACGTTGTGTGTTGTCATTGTGTGTCTGTCTTACGGAGTCACCTAGTGCAG”: the binding signal is 5360 fluorescence intensity (a.u.).

“CCACTACTGCCCTTGCTTGACTCGTTTGGTTGGTTGCCTACGGAGTCACCTAGTGCAG”: the binding signal is 4900 fluorescence intensity (a.u.).

Consider “CTTTTCTCCACGTCGCTGCAGCCGTGTCCTCATCGACCTTCGGAGTCACCTAGTGCAG”, for which the binding signal is 5860 ± 632 fluorescence intensity (a.u.).

With “CCCCGGCTTTGACTCACAGACTCCACGTCTCCACCCCGAACGGAGTCACCTAGTGCAG”, the binding signal was 8050 fluorescence intensity (a.u.).

Consider “ATTAACGCCACGCCATGCCACATTCATAATAAATTCGTTTCGGAGTCACCTAGTGCAG”, for which the binding signal was 4620 fluorescence intensity (a.u.).

With “AAACGCTTACTACCGAACGTCCGATACGTGGAGAAATCCTCGGAGTCACCTAGTGCAG”, the binding signal is 3980 fluorescence intensity (a.u.).

“ACGGCCAGTGACCCAGTTGTACATATACCCAGCGCACACTCGGAGTCACCTAGTGCAG”: the binding signal is 3190 fluorescence intensity (a.u.).

For the sequence “CCCTCGCTAGCCAAATTTGGCCAGCCTACTCCACGTGCCACGGAGTCACCTAGTGCAG”, the binding signal was 6070 fluorescence intensity (a.u.).

With “CCCAACTATACGTGACACATGTTCCGGTGTTCTCACAAATCGGAGTCACCTAGTGCAG”, the binding signal is 3250 fluorescence intensity (a.u.).

These data come from article PMC7819943, “Rice protein-binding microarrays: a tool to detect cis-acting elements near promoter regions in rice”.
